Changes are numbered by the printed parent chain. Results are given in words; binding and its absence hold for the method and conditions named. Some results given as binding are weak or reduced against the parent protein; the word gives no strength.
B1: VpreB antibody 5-14H5 (recombinant mouse-human chimeric IgG1/kappa) (antibody, V domains shown)
VH: QVQLQQPGAELVKPGASVKLSCKASGYTFTSNWMNWVKQRPGQGLEWIGEINPSNGRINYNEKFKSKATLTVDKSSSTAYMQLSSLTSEDSAVYYCARSGLLDYWGQGTTLTVSS
VL: DVLMTQTPLSLPVSLGDQASISCRSSQSLVHSNGNTYLHWYLQKPGQSPKLLIYKVSNRFSGVPDRFSGSGSGTDFTLKISRVEAEDLGVYFCSQSTYLPLTFGAGTRLELKR
B2: VpreB antibody 5-4A9 (recombinant mouse-human chimeric IgG1/kappa) (antibody, V domains shown)
VH: B1 VH with Q1E, P7S, K19Q, N32Y, N35Q, I58N, S66R, K74T
VL: B1 VL with K79T, L99V, R108K

Molecular target: T1, mouse VpreB1 (on the mouse pre-B cell line L1.2) (mouse) (UniProt P13372)
T1 sequence: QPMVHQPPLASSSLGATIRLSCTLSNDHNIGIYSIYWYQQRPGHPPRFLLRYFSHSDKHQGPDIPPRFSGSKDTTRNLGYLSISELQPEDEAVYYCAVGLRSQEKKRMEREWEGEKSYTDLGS
Test: flow cytometry on L1.2 cells, 20 nM antibody

Binder | binding
B1 | binds
B2 | binds

Source: US20220265821A1
